Binding data for seven molecules are collected here from paper doi:10.1101/2023.06.08.544225.

Sequences of proteins named here, by UniProt entry; tags and fusion partners are left off.
UniProt O75643: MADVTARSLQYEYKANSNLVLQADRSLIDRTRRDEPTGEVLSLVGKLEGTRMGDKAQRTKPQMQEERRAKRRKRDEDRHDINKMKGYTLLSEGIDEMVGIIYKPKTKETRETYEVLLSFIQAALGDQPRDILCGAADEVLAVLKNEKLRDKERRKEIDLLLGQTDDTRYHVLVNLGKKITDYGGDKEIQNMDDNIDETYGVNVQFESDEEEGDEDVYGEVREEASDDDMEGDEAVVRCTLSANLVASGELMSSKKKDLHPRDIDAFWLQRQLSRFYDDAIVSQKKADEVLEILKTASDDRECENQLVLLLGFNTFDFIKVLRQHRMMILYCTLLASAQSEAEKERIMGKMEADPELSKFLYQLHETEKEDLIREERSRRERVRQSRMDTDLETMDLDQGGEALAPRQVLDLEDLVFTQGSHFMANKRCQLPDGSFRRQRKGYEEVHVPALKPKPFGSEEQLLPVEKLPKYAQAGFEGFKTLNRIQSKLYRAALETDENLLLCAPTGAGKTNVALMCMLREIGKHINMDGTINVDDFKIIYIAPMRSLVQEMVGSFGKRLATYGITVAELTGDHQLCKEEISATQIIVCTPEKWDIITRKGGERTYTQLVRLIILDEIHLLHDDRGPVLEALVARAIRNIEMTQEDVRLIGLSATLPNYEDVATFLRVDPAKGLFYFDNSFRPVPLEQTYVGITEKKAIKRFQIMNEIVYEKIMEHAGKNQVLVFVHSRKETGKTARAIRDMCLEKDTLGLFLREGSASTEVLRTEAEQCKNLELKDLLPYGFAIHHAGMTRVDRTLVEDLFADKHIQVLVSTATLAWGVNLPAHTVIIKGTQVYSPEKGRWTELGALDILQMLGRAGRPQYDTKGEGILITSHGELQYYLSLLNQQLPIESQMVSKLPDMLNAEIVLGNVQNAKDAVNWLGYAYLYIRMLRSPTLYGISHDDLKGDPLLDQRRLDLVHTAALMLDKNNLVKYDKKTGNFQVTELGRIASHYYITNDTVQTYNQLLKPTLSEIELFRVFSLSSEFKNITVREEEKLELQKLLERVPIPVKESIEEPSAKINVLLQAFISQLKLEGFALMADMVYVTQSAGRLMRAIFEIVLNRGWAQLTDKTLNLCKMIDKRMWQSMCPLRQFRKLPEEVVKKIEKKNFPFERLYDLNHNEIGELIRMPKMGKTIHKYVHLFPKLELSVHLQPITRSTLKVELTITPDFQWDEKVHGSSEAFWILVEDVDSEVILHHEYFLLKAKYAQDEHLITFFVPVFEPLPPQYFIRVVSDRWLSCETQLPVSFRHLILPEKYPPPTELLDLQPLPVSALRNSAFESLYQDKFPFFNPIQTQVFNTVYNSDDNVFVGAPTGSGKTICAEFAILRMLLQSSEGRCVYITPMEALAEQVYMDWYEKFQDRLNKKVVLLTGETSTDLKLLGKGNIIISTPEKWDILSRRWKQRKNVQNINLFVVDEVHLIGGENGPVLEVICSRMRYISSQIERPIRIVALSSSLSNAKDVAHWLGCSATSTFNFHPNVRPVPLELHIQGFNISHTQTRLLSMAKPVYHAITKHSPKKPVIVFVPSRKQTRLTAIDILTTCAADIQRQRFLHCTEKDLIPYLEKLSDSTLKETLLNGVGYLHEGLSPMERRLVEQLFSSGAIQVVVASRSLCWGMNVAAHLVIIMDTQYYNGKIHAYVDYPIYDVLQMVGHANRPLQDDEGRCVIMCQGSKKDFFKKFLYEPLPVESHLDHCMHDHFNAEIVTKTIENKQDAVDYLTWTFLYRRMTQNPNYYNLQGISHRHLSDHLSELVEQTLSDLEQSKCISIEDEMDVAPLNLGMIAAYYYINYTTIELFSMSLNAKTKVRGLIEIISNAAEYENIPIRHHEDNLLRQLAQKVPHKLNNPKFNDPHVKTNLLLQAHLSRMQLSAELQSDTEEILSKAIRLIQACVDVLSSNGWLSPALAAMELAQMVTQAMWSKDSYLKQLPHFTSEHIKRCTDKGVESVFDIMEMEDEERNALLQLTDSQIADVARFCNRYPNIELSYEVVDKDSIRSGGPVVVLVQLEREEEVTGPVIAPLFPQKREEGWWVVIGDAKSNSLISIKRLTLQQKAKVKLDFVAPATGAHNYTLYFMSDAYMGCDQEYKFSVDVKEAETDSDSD
UniProt Q13283: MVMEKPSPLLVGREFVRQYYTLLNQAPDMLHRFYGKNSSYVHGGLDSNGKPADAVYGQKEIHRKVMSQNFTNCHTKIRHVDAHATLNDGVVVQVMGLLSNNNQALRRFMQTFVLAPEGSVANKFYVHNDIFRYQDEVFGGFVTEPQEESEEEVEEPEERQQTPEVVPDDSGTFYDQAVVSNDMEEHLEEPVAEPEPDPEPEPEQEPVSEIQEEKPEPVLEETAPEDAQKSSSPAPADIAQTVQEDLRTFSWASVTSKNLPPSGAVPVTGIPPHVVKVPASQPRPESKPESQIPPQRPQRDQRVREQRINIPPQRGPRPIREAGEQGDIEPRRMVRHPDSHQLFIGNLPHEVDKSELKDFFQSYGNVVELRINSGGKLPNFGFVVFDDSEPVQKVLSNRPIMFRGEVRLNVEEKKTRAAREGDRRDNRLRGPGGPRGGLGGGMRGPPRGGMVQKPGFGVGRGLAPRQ

Assay [1] has as its target SNRNP200 (human (endogenous in HEK293XT)) (UniProt O75643). Kind of assay: affinity purification with mass spectrometry; IP of the endogenous bait (10 µg antibody on Dynabeads Protein G, overnight 4°C) from HEK293XT lysate (150 mM NaCl, 50 mM Tris pH 7.5, 1% IGPAL-CA-630, 5% glycerol), triplicate, TMT11 LC-MS/MS; hit found in both arms, with and without RNase ('direct'), or arm not told.

Assay [2] has the same target. Described as above. This is another data set of the same source.
Assay [3] concerns the target T1, HNRNPL (human (endogenous in HEK293XT)) (UniProt P14866).
T1 sequence: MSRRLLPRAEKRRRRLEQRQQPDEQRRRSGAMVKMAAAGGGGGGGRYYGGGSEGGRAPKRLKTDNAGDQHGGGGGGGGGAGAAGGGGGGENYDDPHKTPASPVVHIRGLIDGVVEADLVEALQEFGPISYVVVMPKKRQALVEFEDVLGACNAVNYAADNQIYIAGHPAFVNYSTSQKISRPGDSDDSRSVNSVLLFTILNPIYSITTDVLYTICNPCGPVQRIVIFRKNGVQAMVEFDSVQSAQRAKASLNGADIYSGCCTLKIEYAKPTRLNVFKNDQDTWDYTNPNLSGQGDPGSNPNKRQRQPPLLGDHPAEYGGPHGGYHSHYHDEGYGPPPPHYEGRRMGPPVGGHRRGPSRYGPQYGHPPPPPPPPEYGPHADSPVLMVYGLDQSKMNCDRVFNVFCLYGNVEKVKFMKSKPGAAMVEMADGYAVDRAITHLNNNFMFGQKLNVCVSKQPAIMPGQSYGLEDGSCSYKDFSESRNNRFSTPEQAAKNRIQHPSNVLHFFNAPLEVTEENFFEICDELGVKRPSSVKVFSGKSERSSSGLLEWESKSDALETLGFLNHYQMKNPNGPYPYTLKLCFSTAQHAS
The assay is described as above.

Assay [4] concerns the target SNRNP200 (human (endogenous in HEK293XT)) (UniProt O75643). Kind of assay: affinity purification with mass spectrometry; same IP-MS, arm with RNase treatment of the HEK293XT lysate (5 µl of 10 mg/ml RNase per ~200 µl, 20 min on ice); hits found only here are called 'RNA-shielded'.

No constants are given. Whether binding was seen depends on the method and setting. Binding seen in cells or lysates may run through a third protein. Here binding means that the protein was enriched with, or labelled near, the bait; the list need not be complete.

In the case of G3BP1 (from UniProt Q13283 1-466), in assay [1], the binding entry was “binds”.

B1: BUD13 (protein, UniProt Q9BRD0 1-619)
chain: MAAAPPLSKAEYLKRYLSGADAGVDRGSESGRKRRKKRPKPGGAGGKGMRIVDDDVSWTAISTTKLEKEEEEDDGDLPVVAEFVDERPEEVKQMEAFRSSAKWKLLGGHNEDLPSNRHFRHDTPDSSPRRVRHGTPDPSPRKDRHDTPDPSPRRARHDTPDPSPLRGARHDSDTSPPRRIRHDSSDTSPPRRARHDSPDPSPPRRPQHNSSGASPRRVRHDSPDPSPPRRARHGSSDISSPRRVHNNSPDTSRRTLGSSDTQQLRRARHDSPDLAPNVTYSLPRTKSGKAPERASSKTSPHWKESGASHLSFPKNSKYEYDPDISPPRKKQAKSHFGDKKQLDSKGDCQKATDSDLSSPRHKQSPGHQDSDSDLSPPRNRPRHRSSDSDLSPPRRRQRTKSSDSDLSPPRRSQPPGKKAAHMYSGAKTGLVLTDIQREQQELKEQDQETMAFEAEFQYAETVFRDKSGRKRNLKLERLEQRRKAEKDSERDELYAQWGKGLAQSRQQQQNVEDAMKEMQKPLARYIDDEDLDRMLREQEREGDPMANFIKKNKAKENKNKKVRPRYSGPAPPPNRFNIWPGYRWDGVDRSNGFEQKRFARLASKKAVEELAYKWSVEDM
B1: the binding result in assay [2] is reported as “binds”.

B2: ILF3 (protein, UniProt Q12906 1-894)
chain: MRPMRIFVNDDRHVMAKHSSVYPTQEELEAVQNMVSHTERALKAVSDWIDEQEKGSSEQAESDNMDVPPEDDSKEGAGEQKTEHMTRTLRGVMRVGLVAKGLLLKGDLDLELVLLCKEKPTTALLDKVADNLAIQLAAVTEDKYEILQSVDDAAIVIKNTKEPPLSLTIHLTSPVVREEMEKVLAGETLSVNDPPDVLDRQKCLAALASLRHAKWFQARANGLKSCVIVIRVLRDLCTRVPTWGPLRGWPLELLCEKSIGTANRPMGAGEALRRVLECLASGIVMPDGSGIYDPCEKEATDAIGHLDRQQREDITQSAQHALRLAAFGQLHKVLGMDPLPSKMPKKPKNENPVDYTVQIPPSTTYAITPMKRPMEEDGEEKSPSKKKKKIQKKEEKAEPPQAMNALMRLNQLKPGLQYKLVSQTGPVHAPIFTMSVEVDGNSFEASGPSKKTAKLHVAVKVLQDMGLPTGAEGRDSSKGEDSAEETEAKPAVVAPAPVVEAVSTPSAAFPSDATAEQGPILTKHGKNPVMELNEKRRGLKYELISETGGSHDKRFVMEVEVDGQKFQGAGSNKKVAKAYAALAALEKLFPDTPLALDANKKKRAPVPVRGGPKFAAKPHNPGFGMGGPMHNEVPPPPNLRGRGRGGSIRGRGRGRGFGGANHGGYMNAGAGYGSYGYGGNSATAGYSQFYSNGGHSGNASGGGGGGGGGSSGYGSYYQGDNYNSPVPPKHAGKKQPHGGQQKPSYGSGYQSHQGQQQSYNQSPYSNYGPPQGKQKGYNHGQGSYSYSNSYNSPGGGGGSDYNYESKFNYSGSGGRSGGNSYGSGGASYNPGSHGGYGGGSGGGSSYQGKQGGYSQSNYNSPGSGQNYSGPPSSYQSSQGGYGRNADHSMNYQYR
B2: the binding entry in assay [3] is given as “binds”.

B3: CSTF2 (protein, UniProt P33240 1-577)
chain: MAGLTVRDPAVDRSLRSVFVGNIPYEATEEQLKDIFSEVGPVVSFRLVYDRETGKPKGYGFCEYQDQETALSAMRNLNGREFSGRALRVDNAASEKNKEELKSLGTGAPVIESPYGETISPEDAPESISKAVASLPPEQMFELMKQMKLCVQNSPQEARNMLLQNPQLAYALLQAQVVMRIVDPEIALKILHRQTNIPTLIAGNPQPVHGAGPGSGSNVSMNQQNPQAPQAQSLGGMHVNGAPPLMQASMQGGVPAPGQMPAAVTGPGPGSLAPGGGMQAQVGMPGSGPVSMERGQVPMQDPRAAMQRGSLPANVPTPRGLLGDAPNDPRGGTLLSVTGEVEPRGYLGPPHQGPPMHHVPGHESRGPPPHELRGGPLPEPRPLMAEPRGPMLDQRGPPLDGRGGRDPRGIDARGMEARAMEARGLDARGLEARAMEARAMEARAMEARAMEARAMEVRGMEARGMDTRGPVPGPRGPIPSGMQGPSPINMGAVVPQGSRQVPVMQGTGMQGASIQGGSQPGGFSPGQNQVTPQDHEKAALIMQVLQLTADQIAMLPPEQRQSILILKEQIQKSTGAP
Turning to B3, the binding result in assay [3] is on record as “binds”.

B4: CD2BP2 (protein, UniProt O95400 1-341)
chain: MPKRKVTFQGVGDEEDEDEIIVPKKKLVDPVAGSGGPGSRFKGKHSLDSDEEEDDDDGGSSKYDILASEDVEGQEAATLPSEGGVRITPFNLQEEMEEGHFDADGNYFLNRDAQIRDSWLDNIDWVKIRERPPGQRQASDSEEEDSLGQTSMSAQALLEGLLELLLPRETVAGALRRLGARGGGKGRKGPGQPSSPQRLDRLSGLADQMVARGNLGVYQETRERLAMRLKGLGCQTLGPHNPTPPPSLDMFAEELAEEELETPTPTQRGEAESRGDGLVDVMWEYKWENTGDAELYGPFTSAQMQTWVSEGYFPDGVYCRKLDPPGGQFYNSKRIDFDLYT
As for B4, the binding result in assay [2] is reported as “binds”.

B5: MATR3 (protein, UniProt P43243 1-847)
chain: MSKSFQQSSLSRDSQGHGRDLSAAGIGLLAAATQSLSMPASLGRMNQGTARLASLMNLGMSSSLNQQGAHSALSSASTSSHNLQSIFNIGSRGPLPLSSQHRGDADQASNILASFGLSARDLDELSRYPEDKITPENLPQILLQLKRRRTEEGPTLSYGRDGRSATREPPYRVPRDDWEEKRHFRRDSFDDRGPSLNPVLDYDHGSRSQESGYYDRMDYEDDRLRDGERCRDDSFFGETSHNYHKFDSEYERMGRGPGPLQERSLFEKKRGAPPSSNIEDFHGLLPKGYPHLCSICDLPVHSNKEWSQHINGASHSRRCQLLLEIYPEWNPDNDTGHTMGDPFMLQQSTNPAPGILGPPPPSFHLGGPAVGPRGNLGAGNGNLQGPRHMQKGRVETSRVVHIMDFQRGKNLRYQLLQLVEPFGVISNHLILNKINEAFIEMATTEDAQAAVDYYTTTPALVFGKPVRVHLSQKYKRIKKPEGKPDQKFDQKQELGRVIHLSNLPHSGYSDSAVLKLAEPYGKIKNYILMRMKSQAFIEMETREDAMAMVDHCLKKALWFQGRCVKVDLSEKYKKLVLRIPNRGIDLLKKDKSRKRSYSPDGKESPSDKKSKTDGSQKTESSTEGKEQEEKSGEDGEKDTKDDQTEQEPNMLLESEDELLVDEEEAAALLESGSSVGDETDLANLGDVASDGKKEPSDKAVKKDGSASAAAKKKLKKVDKIEELDQENEAALENGIKNEENTEPGAESSENADDPNKDTSENADGQSDENKDDYTIPDEYRIGPYQPNVPVGIDYVIPKTGFYCKLCSLFYTNEEVAKNTHCSSLPHYQKLKKFLNKLAEERRQKKET
Turning to B5, in assay [3], the binding result is on record as “binds”.

B6: AQR (protein, UniProt O60306 1-1485)
chain: MAAPAQPKKIVAPTVSQINAEFVTQLACKYWAPHIKKKSPFDIKVIEDIYEKEIVKSRFAIRKIMLLEFSQYLENYLWMNYSPEVSSKAYLMSICCMVNEKFRENVPAWEIFKKKPDHFPFFFKHILKAALAETDGEFSLHEQTVLLLFLDHCFNSLEVDLIRSQVQQLISLPMWMGLQLARLELELKKTPKLRKFWNLIKKNDEKMDPEAREQAYQERRFLSQLIQKFISVLKSVPLSEPVTMDKVHYCERFIELMIDLEALLPTRRWFNTILDDSHLLVHCYLSNLVRREEDGHLFSQLLDMLKFYTGFEINDQTGNALTENEMTTIHYDRITSLQRAAFAHFPELYDFALSNVAEVDTRESLVKFFGPLSSNTLHQVASYLCLLPTLPKNEDTTFDKEFLLELLVSRHERRISQIQQLNQMPLYPTEKIIWDENIVPTEYYSGEGCLALPKLNLQFLTLHDYLLRNFNLFRLESTYEIRQDIEDSVSRMKPWQSEYGGVVFGGWARMAQPIVAFTVVEVAKPNIGENWPTRVRADVTINLNVRDHIKDEWEGLRKHDVCFLITVRPTKPYGTKFDRRRPFIEQVGLVYVRGCEIQGMLDDKGRVIEDGPEPRPNLRGESRTFRVFLDPNQYQQDMTNTIQNGAEDVYETFNIIMRRKPKENNFKAVLETIRNLMNTDCVVPDWLHDIILGYGDPSSAHYSKMPNQIATLDFNDTFLSIEHLKASFPGHNVKVTVEDPALQIPPFRITFPVRSGKGKKRKDADVEDEDTEEAKTLIVEPHVIPNRGPYPYNQPKRNTIQFTHTQIEAIRAGMQPGLTMVVGPPGTGKTDVAVQIISNIYHNFPEQRTLIVTHSNQALNQLFEKIMALDIDERHLLRLGHGEEELETEKDFSRYGRVNYVLARRIELLEEVKRLQKSLGVPGDASYTCETAGYFFLYQVMSRWEEYISKVKNKGSTLPDVTEVSTFFPFHEYFANAPQPIFKGRSYEEDMEIAEGCFRHIKKIFTQLEEFRASELLRSGLDRSKYLLVKEAKIIAMTCTHAALKRHDLVKLGFKYDNILMEEAAQILEIETFIPLLLQNPQDGFSRLKRWIMIGDHHQLPPVIKNMAFQKYSNMEQSLFTRFVRVGVPTVDLDAQGRARASLCNLYNWRYKNLGNLPHVQLLPEFSTANAGLLYDFQLINVEDFQGVGESEPNPYFYQNLGEAEYVVALFMYMCLLGYPADKISILTTYNGQKHLIRDIINRRCGNNPLIGRPNKVTTVDRFQGQQNDYILLSLVRTRAVGHLRDVRRLVVAMSRARLGLYIFARVSLFQNCFELTPAFSQLTARPLHLHIIPTEPFPTTRKNGERPSHEVQIIKNMPQMANFVYNMYMHLIQTTHHYHQTLLQLPPAMVEEGEEVQNQETELETEEEAMTVQADIIPSPTDTSCRQETPAFQTDTTPSETGATSTPEAIPALSETTPTVVGAVSAPAEANTPQDATSAPEETK
Consider B6, for which, in assay [4], the binding entry is reported as “binds”.
